Tested on: mouse model of generalised seizure (tonic hind limb extensor convulsions)
Experiment: mini-MEST (maximal electroshock seizure threshold) test in the mouse
Settings: 2.5 mg/kg i.p., 30 min post dose, N=6
Experimental: The maximal electroshock seizure threshold (MEST) test is widely utilized preclinically to evaluate pro- or anti-convulsant properties of test compounds (Loscher et al., 1991).
In the MEST test the ability of a drug to alter the seizure threshold current required to induce hind limb tonic extensor convulsions is measured according to an “up and down” method of shock titration (Kimball et al., 1957). An increase in seizure threshold is indicative of anti-convulsant effect.
The ability of a test compound to alter the stimulus intensity, expressed as current (mA), required to induce the presence of tonic hind limb extensor convulsions, is assessed in the MEST.
Naïve mice were acclimatized to the procedure room in their home cages for up to 7 days, with food and water available ad libitum.
All animals were weighed at the beginning of the study and randomly assigned to treatment groups based on a mean distribution of body weight across groups.
The first animal within a treatment group was given a shock at the expected or estimated CC50 current. […]
Test compound effects were also calculated as percentage change in CC50 from the vehicle control group.
Significant difference between drug-treated animals and controls were assessed according to Litchfield and Wilcoxon (1949).

## CN1C(=O)CN=C(c2ccccc2)c2cc(Cl)ccc21 [Diazepam, diazepam, reference compound]
  CC50 +/- SEM (current required for 50% of the animals to show seizure behaviour): 97.8 ± 3.7 mA
Listed as diazepam
  CC50 +/- SEM (current required for 50% of the animals to show seizure behaviour): 97.8 mA

Source: US20240360060A1, “6-HYDROXY-CANNABIDIOL-C4” (GW RESEARCH LIMITED, priority 2021, published 2024)
